Results are given in words; binding and its absence hold for the method and conditions named. In cells and extracts the contact can be indirect. Some results given as binding are weak or reduced against the parent protein; the word gives no strength.

By UniProt entry, the sequences of proteins in these tests, tags left out.
UniProt O43524: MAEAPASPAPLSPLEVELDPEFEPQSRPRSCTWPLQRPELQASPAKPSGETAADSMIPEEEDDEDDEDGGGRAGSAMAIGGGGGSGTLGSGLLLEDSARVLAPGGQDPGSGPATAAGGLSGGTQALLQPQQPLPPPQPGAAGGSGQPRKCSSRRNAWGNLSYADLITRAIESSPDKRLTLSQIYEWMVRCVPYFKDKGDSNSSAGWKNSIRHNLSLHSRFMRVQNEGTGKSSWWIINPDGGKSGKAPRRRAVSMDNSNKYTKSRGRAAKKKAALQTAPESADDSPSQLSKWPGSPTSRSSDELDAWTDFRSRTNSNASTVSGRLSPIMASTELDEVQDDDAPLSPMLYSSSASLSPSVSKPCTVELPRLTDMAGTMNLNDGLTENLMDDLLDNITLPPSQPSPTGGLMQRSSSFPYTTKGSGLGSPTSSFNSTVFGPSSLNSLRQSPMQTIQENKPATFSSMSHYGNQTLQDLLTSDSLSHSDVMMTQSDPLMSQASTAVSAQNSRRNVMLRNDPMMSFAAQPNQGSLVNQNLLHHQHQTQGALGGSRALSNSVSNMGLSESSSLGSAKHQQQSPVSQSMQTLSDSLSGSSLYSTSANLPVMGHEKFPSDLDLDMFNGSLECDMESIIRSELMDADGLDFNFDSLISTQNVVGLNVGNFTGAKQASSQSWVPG
UniProt P84022: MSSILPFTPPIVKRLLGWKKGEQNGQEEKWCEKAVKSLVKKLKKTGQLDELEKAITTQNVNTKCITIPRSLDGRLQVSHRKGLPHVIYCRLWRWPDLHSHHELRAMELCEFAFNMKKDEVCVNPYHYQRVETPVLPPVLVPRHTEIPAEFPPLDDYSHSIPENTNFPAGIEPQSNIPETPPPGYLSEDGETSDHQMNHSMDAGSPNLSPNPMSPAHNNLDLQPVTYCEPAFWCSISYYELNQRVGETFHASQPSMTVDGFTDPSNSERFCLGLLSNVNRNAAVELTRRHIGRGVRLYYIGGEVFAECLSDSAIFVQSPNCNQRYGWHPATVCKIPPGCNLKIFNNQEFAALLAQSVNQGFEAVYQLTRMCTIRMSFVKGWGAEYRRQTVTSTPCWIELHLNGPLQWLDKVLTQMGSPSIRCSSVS

Test [1] has as its target FoxO3 (human (endogenous in PC-3)) (UniProt O43524). Put plainly: co-IP; PC-3 cell lysates with smad3 or FoxO3 antibody overnight at 4°C, protein A/G magnetic beads 2 h at 4°C, Western blotting; cells treated with lmwCAFS, MT-lmwCAFS, MT-lmwCAFS with TGF-β3 immune depletion, or TGFBR2 knockdown and MT-lmwCAFS. A general note: Immunoblotting shows a protein as a band on a membrane.

Test [2] has as its target smad3 (human (endogenous in PC-3)), P84022. The description is as above. The settings on record: remark: other sources report otherwise.

Regarding smad3 (from UniProt P84022 1-425), in test [1], the binding result is listed as “binds”.

On to smad4 (from UniProt Q13485 1-552), for which the binding entry in test [1] is reported as “binds”.

B1: smad4, Q13485 1-552 (protein)
chain: MDNMSITNTPTSNDACLSIVHSLMCHRQGGESETFAKRAIESLVKKLKEKKDELDSLITAITTNGAHPSKCVTIQRTLDGRLQVAGRKGFPHVIYARLWRWPDLHKNELKHVKYCQYAFDLKCDSVCVNPYHYERVVSPGIDLSGLTLQSNAPSSMMVKDEYVHDFEGQPSLSTEGHSIQTIQHPPSNRASTETYSTPALLAPSESNATSTANFPNIPVASTSQPASILGGSHSEGLLQIASGPQPGQQQNGFTGQPATYHHNSTTTWTGSRTAPYTPNLPHHQNGHLQHHPPMPPHPGHYWPVHNELAFQPPISNHPAPEYWCSIAYFEMDVQVGETFKVPSSCPIVTVDGYVDPSGGDRFCLGQLSNVHRTEAIERARLHIGKGVQLECKGEGDVWVRCLSDHAVFVQSYYLDREAGRAPGDAVHKIYPSAYIKVFDLRQCHRQMQQQAATAQAAAAAQAAAVAGNIPGPGSVGGIAPAISLSAAAGIGVDDLRRLCILRMSFVKGWGPDYPRQSIKETPCWIEIHLHRALQLLDEVLHTMPIADPQPLD
In the case of B1, the binding entry in test [2] is given as “binds”.

These data come from paper PMC7982613.
